In patent US20250154171A1, “RAS INHIBITORS” (Revolution Medicines, Inc., priority 2023, published 2025):
Some of these results come from one statement about several compounds together.

The chains behind the UniProt entries cited, without tags or fusion partners. Where a name states a change or a piece, a line headed by the entry shows the natural chain unless it says otherwise. Residues count along the entry.
UniProt P01116, 1-188 isoform P01116-2 G12V: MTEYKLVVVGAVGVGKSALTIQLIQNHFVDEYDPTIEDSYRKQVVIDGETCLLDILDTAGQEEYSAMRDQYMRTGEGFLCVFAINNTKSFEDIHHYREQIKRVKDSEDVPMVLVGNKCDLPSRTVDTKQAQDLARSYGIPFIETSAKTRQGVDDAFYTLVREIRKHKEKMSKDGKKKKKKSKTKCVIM
UniProt P62937, whole entry: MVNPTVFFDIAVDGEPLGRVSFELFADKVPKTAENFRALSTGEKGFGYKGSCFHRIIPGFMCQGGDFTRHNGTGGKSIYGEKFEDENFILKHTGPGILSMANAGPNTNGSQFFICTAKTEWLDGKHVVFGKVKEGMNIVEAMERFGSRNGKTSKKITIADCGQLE

Assays:
K-RasG12V = K-RasG12V (Homo sapiens, UniProt P01116+P62937, G12V); experiment: Disruption of BRAF RBD interaction with K-Ras (TR-FRET / MOA assay), K-RasG12V; format: biochemical; conditions: TR-FRET with cyclophilin A and GST-BRAF RBD, read-out: IC50 with respect to K-RasG12V (disruption of BRAF RBD interaction)
Capan-1 (K-Ras G12V) = experiment: CellTiter-Glo cell viability assay, Capan-1; format: cell-based, human; conditions: 5-day treatment, Capan-1 versus A375

Row | SMILES | IC50 (K-RasG12V) [µM] | decrease in cell viability with respect to KRAS G12V (Capan-1) versus wild-type KRAS (A375) (Capan-1 (K-Ras G12V))
1 | CO[C@@H](C)c1ncc(N2CCN(C3CC3)CC2)cc1-c1c2c3cc(ccc3n1CCOC1CCOCC1)-c1csc(n1)[C@@H](N1CCCC1)[C@H](NC(=O)C13CC(C1)C(C)O3)C(=O)N1CC3CC(C3)(N1)C(=O)OCC(C)(C)C2 (mixture of isomers) [Example A469] | < 1 | greater decrease in cell viability
2 | CO[C@@H](C)c1ncc(N2CCN(C3CC3)CC2)cc1-c1c2c3cc(ccc3n1CCOC1CCOCC1)-c1csc(n1)[C@@H](N1CC3CC1C3)[C@H](NC(=O)N1CC[C@H]1C)C(=O)N1CCCC(N1)C(=O)OCC(C)(C)C2 (mixture of isomers) [Example A470] | < 1 | greater decrease in cell viability
3 | CO[C@@H](C)c1ncc(N2CCN(C3CC3)CC2)cc1-c1c2c3cc(ccc3n1CCO[C@H]1CCOC(C)(C)C1)-c1csc(n1)[C@@H](N1CCOCC1)[C@H](NC(=O)C13CC(C1)[C@H](C)O3)C(=O)N1N[C@H](C(=O)OCC(C)(C)C2)C2CC1C2 (racemic) [Example A471] | < 1 | greater decrease in cell viability
4 | CO[C@@H](C)c1ncc(N2CCN(C3CC3)CC2)cc1-c1c2c3cc(ccc3n1CCO[C@H]1CCOC(C)(C)C1)-c1csc(n1)[C@@H](N1CCOCC1)[C@H](NC(=O)C13CC(C1)[C@@H](C)O3)C(=O)N1N[C@H](C(=O)OCC(C)(C)C2)C2CC1C2 (racemic) [Example A472] | < 1 | greater decrease in cell viability
5 | CO[C@@H](C)c1ncc(N2CCN(C3CC3)CC2)cc1-c1c2c3cc(ccc3n1CCOC1CCOCC1)-c1coc(n1)[C@@H](N1CCOCC1)[C@H](NC(=O)C13CC(C1)C(C)O3)C(=O)N1CCC[C@H](N1)C(=O)OCC(C)(C)C2 (mixture of isomers) [Example A473] | < 1 | greater decrease in cell viability
6 | CO[C@@H](C)c1ncc(N2CCN(C3CC3)CC2)cc1-c1c2c3cc(ccc3n1CCOC1CCOCC1)-c1csc(n1)[C@@H](N1CC(F)(F)C1)[C@H](NC(=O)[C@H]1[C@H](C)[C@@H]1C)C(=O)N1CCC[C@H](N1)C(=O)OCC(C)(C)C2 (racemic) [Example A474] | < 1 | greater decrease in cell viability
7 | CO[C@@H](C)c1ncc(N2CCN(C3CC3)CC2)cc1-c1c2c3cc(ccc3n1CCOC1CCOCC1)-c1csc(n1)[C@@H](N1CC3CC1C3)[C@H](NC(=O)C13CC(C1)C(C)O3)C(=O)N1CCC[C@H](N1)C(=O)OCC(C)(C)C2 (mixture of isomers) [Example A476] | < 1 | greater decrease in cell viability
8 | CO[C@@H](C)c1ncc(N2CCN(C3CC3)CC2)cc1-c1c2c3cc(ccc3n1CCOC1CCOCC1)-c1coc(n1)[C@@H](N1CCOCC1)[C@H](NC(=O)N1C[C@@H]3COCC[C@@H]31)C(=O)N1CCC[C@H](N1)C(=O)OCC(C)(C)C2 (racemic) [Example A477] | < 1 | greater decrease in cell viability
9 | CO[C@@H](C)c1ncc(N2CCN(C3CC3)CC2)cc1-c1c2c3cc(ccc3n1CCOC1CCOCC1)-c1coc(n1)[C@@H](N1CCOCC1)[C@H](NC(=O)[C@@H]1[C@@H](C)[C@H]1c1ccncn1)C(=O)N1CCC[C@H](N1)C(=O)OCC(C)(C)C2 (racemic) [Example A479] | < 1 | greater decrease in cell viability
10 | CO[C@@H](C)c1ncc(N2CCN(C3CC3)CC2)cc1-c1c2c3cc(ccc3n1CCOC1CCOCC1)-c1coc(n1)[C@@H](N1CCOCC1)[C@H](NC(=O)[C@@H]1[C@@H](C)[C@H]1c1ccccn1)C(=O)N1CCC[C@H](N1)C(=O)OCC(C)(C)C2 (racemic) [Example A480] | < 1 | greater decrease in cell viability
11 | CO[C@@H](C)c1ncc(N2CCN(C3CC3)CC2)cc1-c1c2c3cc(ccc3n1CCOC1CCOCC1)-c1coc(n1)[C@@H](N1CCOCC1)[C@H](NC(=O)[C@@H]1[C@@H](C)[C@H]1c1cocn1)C(=O)N1CCC[C@H](N1)C(=O)OCC(C)(C)C2 (racemic) [Example A481] | < 1 | greater decrease in cell viability
12 | CO[C@@H](C)c1ncc(N2CCN(C3CC3)CC2)cc1-c1c2c3cc(ccc3n1CCOC1CCOCC1)-c1coc(n1)[C@@H](N1CCOCC1)[C@H](NC(=O)C13CC(CO1)C3)C(=O)N1CCC[C@H](N1)C(=O)OCC(C)(C)C2 (racemic) [Example A482] | < 1 | greater decrease in cell viability
13 | CO[C@@H](C)c1ncc(N2CCN(C3CC3)CC2)cc1-c1c2c3cc(ccc3n1CCOC1CCOCC1)-c1coc(n1)[C@@H](N1CCCC1)[C@H](NC(=O)N1CC[C@H]1C)C(=O)N1CCC[C@H](N1)C(=O)OCC(C)(C)C2 (racemic) [Example A483] | < 1 | greater decrease in cell viability
14 | CO[C@@H](C)c1ncc(N2CCN(C3CC3)CC2)cc1-c1c2c3cc(ccc3n1CCOC1CCOCC1)-c1coc(n1)[C@@H](N1CCCC1)[C@H](NC(=O)C13CC(CO1)C3)C(=O)N1CCC[C@H](N1)C(=O)OCC(C)(C)C2 (racemic) [Example A486] | < 1 | greater decrease in cell viability
15 | CCO[C@@H]1c2nc(cs2)-c2ccc3c(c2)c(c(-c2cc(N4CCN(C5CC5)CC4)cnc2[C@H](C)OC)n3CCOC2CCOCC2)CC(C)(C)COC(=O)C23CC(CN(N2)C(=O)[C@H]1NC(=O)[C@@H]1[C@@H](C)[C@H]1c1ccncn1)C3 (racemic) [Example A487] | < 1 | greater decrease in cell viability
16 | CO[C@@H](C)c1ncc(N2CCN(C3CC3)CC2)cc1-c1c2c3cc(ccc3n1CCO[C@H]1CCOC(C)(C)C1)-c1coc(n1)[C@@H](N1CCCC1)[C@H](NC(=O)[C@@H]1[C@@H](C)[C@H]1c1ccccn1)C(=O)N1CCC[C@H](N1)C(=O)OCC(C)(C)C2 (racemic) [Example A488] | < 1 | greater decrease in cell viability
17 | CO[C@@H](C)c1ncc(N2CCN(C3CC3)CC2)cc1-c1c2c3cc(ccc3n1CCO[C@@H]1CCOC(C)(C)C1)-c1coc(n1)[C@@H](N1CCCC1)[C@H](NC(=O)[C@@H]1[C@@H](C)[C@H]1c1ccccn1)C(=O)N1CCC[C@H](N1)C(=O)OCC(C)(C)C2 (racemic) [Example A489] | < 1 | greater decrease in cell viability
18 | CO[C@@H](C)c1ncc(N2CCN(C3CC3)CC2)cc1-c1c2c3cc(ccc3n1CCO[C@H]1CCOC(C)(C)C1)-c1coc(n1)[C@@H](N1CCCC1)[C@H](NC(=O)[C@@H]1[C@@H](C)[C@H]1c1cocn1)C(=O)N1CCC[C@H](N1)C(=O)OCC(C)(C)C2 (racemic) [Example A490] | < 1 | greater decrease in cell viability
19 | CO[C@@H](C)c1ncc(N2CCN(C3CC3)CC2)cc1-c1c2c3cc(ccc3n1CCO[C@@H]1CCOC(C)(C)C1)-c1coc(n1)[C@@H](N1CCCC1)[C@H](NC(=O)[C@@H]1[C@@H](C)[C@H]1c1cocn1)C(=O)N1CCC[C@H](N1)C(=O)OCC(C)(C)C2 (racemic) [Example A491] | < 1 | greater decrease in cell viability
20 | CO[C@@H](C)c1ncc(N2CCN(C3CC3)CC2)cc1-c1c2c3cc(ccc3n1CCO[C@@H]1CCOC(C)(C)C1)-c1csc(n1)[C@@H](N1CCOCC1)[C@H](NC(=O)C13CC(C1)[C@H](C)O3)C(=O)N1N[C@H](C(=O)OCC(C)(C)C2)C2CC1C2 (racemic) [Example A492] | < 1 | greater decrease in cell viability
21 | CO[C@@H](C)c1ncc(N2CCN(C3CC3)CC2)cc1-c1c2c3cc(ccc3n1CCO[C@@H]1CCOC(C)(C)C1)-c1csc(n1)[C@@H](N1CCOCC1)[C@H](NC(=O)C13CC(C1)[C@@H](C)O3)C(=O)N1N[C@H](C(=O)OCC(C)(C)C2)C2CC1C2 (racemic) [Example A493] | < 1 | greater decrease in cell viability
22 | CCO[C@@H]1c2nc(cs2)-c2ccc3c(c2)c(c(-c2cc(N4CCN(C5CC5)CC4)cnc2[C@H](C)OC)n3CCOC2CCOCC2)CC(C)(C)COC(=O)C23CC(CN(N2)C(=O)[C@H]1NC(=O)[C@@H]1[C@@H](C)[C@H]1c1cocn1)C3 (racemic) [Example A494] | < 1 | greater decrease in cell viability
23 | CCO[C@@H]1c2nc(cs2)-c2ccc3c(c2)c(c(-c2cc(N4CCN(C5CC5)CC4)cnc2[C@H](C)OC)n3CCOC2CCOCC2)CC(C)(C)COC(=O)C23CC(CN(N2)C(=O)[C@H]1NC(=O)[C@@H]1[C@@H](C)[C@H]1c1ccccn1)C3 (racemic) [Example A495] | < 1 | greater decrease in cell viability
24 | CO[C@@H](C)c1ncc(N2CCN(C3CC3)CC2)cc1-c1c2c3cc(ccc3n1CCOC1CCOCC1)-c1csc(n1)[C@@H](OC[C@H](C)F)[C@H](NC(=O)C13CC(C1)[C@@H](C)O3)C(=O)N1N[C@H](C(=O)OCC(C)(C)C2)C2CC1C2 (racemic) [Example A496] | < 1 | greater decrease in cell viability
25 | CO[C@@H](C)c1ncc(N2CCN(C3CC3)CC2)cc1-c1c2c3cc(ccc3n1CCOC1CCOCC1)-c1csc(n1)[C@@H](OC[C@H](C)F)[C@H](NC(=O)C13CC(C1)[C@H](C)O3)C(=O)N1N[C@H](C(=O)OCC(C)(C)C2)C2CC1C2 (racemic) [Example A497] | < 1 | greater decrease in cell viability
